20 compounds from PubChem BioAssay AID200 (DTP/NCI, 2004) can be followed below.

The list is a part of this screen's results and no random one: it gathers tests that were run many times, whatever their T/C, doses with no T/C, and many T/C values between a quarter and a half above the control. Other doses and runs of a compound stand elsewhere. T/C gives the treated animals as a percentage of the vehicle group. Some entries give survivors of the animals treated and no T/C: the source holds a T/C of zero for them, seemingly a mark for toxic or unscored doses. Some survivor counts are full or nearly so, which does not show that the dose was tolerated: survival well below the control is almost never listed, so the zero probably covers shortened survival too. Counts of survivors are from the toxicity check (mostly the fifth day) where no day follows; animals may have died later. Schedule codes are those of the source, taken here to give the interval after Q, in days (D) or hours (H), and the number of doses after X. Where survival is the endpoint, the PubChem record calls one and a half times the control and up active, and a quarter to a half above the control has no call in these data; cut-offs in other NCI protocols can differ. Additions like (4×) stand for listed records that agree. Some T/C values carry the count of animals alive at the toxicity check (mostly the fifth day); without a count, all were alive then. *1 amine or outer side, *2 acyl side, *3 side chain or, on linkers, in order; H or OH if unused. Where a SMILES comes first, the peptide text is derived from it. Bridges are numbered along the chain shown (N, C = ends). Roman numbers before positions name the chains, in order. [ ]: non-standard residue; d: D form. Actinocin(9to1) = Cc1c2oc3c(C)ccc(C(=O)[*:1])c3nc-2c(C(=O)[*:2])c(N)c1=O; NMeA = CN[CH](C)C(=O)O; Sar = CNCC(=O)O

The subject of this test is B6C3F1 mice, B16 melanoma ip, median survival T/C. Briefly: NCI In Vivo Anticancer Drug Screen. Data for tumor model B16 Melanoma (intraperitoneal) in B6C3F1 mice. The following applies: T/C endpoint: median survival time, higher T/C = longer survival. The gist of the method: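 Mice bearing transplanted tumor were dosed with compound or vehicle, and survival was recorded. Activity is expressed as the treated-group measurement (T) divided by the vehicle control measurement (C).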

Setting [1] is: dose: 6.25 mg/kg/injection, schedule: Q01DX009 (ip), vehicle: saline with Tween-80.
The mark [2] stands for this setting: dose: 25.0 mg/kg/injection, schedule: Q01DX009 (ip), vehicle: saline with Tween-80.
Where [3] appears, read: dose: 1.56 mg/kg/injection, schedule: Q01DX009 (ip), vehicle: saline with Tween-80.

Consider `Cc1c2oc3c(C)ccc(C(=O)NC4C(=O)NC(C(C)C)C(=O)N5CCCC5C(=O)N(C)CC(=O)N(C)C(C)C(=O)OC4C)c3nc-2c(C(=O)NC2C(=O)NC(C(C)C)C(=O)N3CCCC3C(=O)N(C)CC(=O)N(C)C(C)C(=O)OC2C)c(N)c1=O` (stereo not given) (I: TVP[Sar][NMeA] / II: TVP[Sar][NMeA]; ester I:1-I:C, II:1-II:C; linker I:N-II:N via Actinocin(9to1); configuration not given here), for which, under “dose: 8.0 mg/kg/injection, schedule: Q04DX003 (ip), vehicle: saline + alcohol”, the survivor count was 6 of 8.

`O=C1CCCCC1C(=O)C(F)(F)F` (stereo not given): the survivor count reads like this: (dose: 36.0 mg/kg/injection, schedule: Q01DX009 (ip), vehicle: saline + Tween-80 + alcohol) 10 of 10; (dose: 100.0 mg/kg/injection, schedule: Q01DX009 (ip), vehicle: saline + Tween-80 + alcohol) 4 of 10; (dose: 200.0 mg/kg/injection, schedule: Q01DX009 (ip), vehicle: saline + Tween-80 + alcohol) 0 of 10.

Regarding `COC1CC(C)C(OC)c2cc(O)cc(c2O)NC(=O)/C(C)=C/C=C\C(C)C(OC(N)=O)/C(C)=C\C(C)C1OC` (stereo not given), the T/C runs as follows: (dose: 0.62 mg/kg/injection, schedule: Q01DX009 (ip), vehicle: other) 131 % of control; (dose: 1.25 mg/kg/injection, schedule: Q01DX009 (ip), vehicle: saline with Tween-80) 132 % of control; (dose: 2.5 mg/kg/injection, schedule: Q01DX009 (ip), vehicle: saline with Tween-80) 146 % of control; (dose: 5.0 mg/kg/injection, schedule: Q01DX009 (ip), vehicle: other) 130 % of control. Further, the survivor count (dose: 10.0 mg/kg/injection, schedule: Q01DX009 (ip), vehicle: saline with Tween-80) is 9 of 9.

Turning to `O=C(O)CSc1c(Cl)c(=O)oc2ccc(Cl)cc12`, the survivor count (dose: 200.0 mg/kg/injection, schedule: Q01DX009 (ip), vehicle: Klucel (hydroxypropylcellulose) (HPC)) was 8 of 10.

For the compound `CC(C)(C)N1CC1CNC(=O)C(=O)NCC1CN1C(C)(C)C` (stereo not given), the T/C under setting [1] was 125 % of control. In addition, under setting [2], the survivor count is recorded as 10 of 10.

As to `[Cl][Pt+2][Cl].[NH-]c1cc(Cl)c(Cl)c(Cl)c1[NH-]`, for the setting “dose: 160.0 mg/kg/injection, schedule: Q01DX009 (ip), vehicle: distilled water + Tween-80”, the survivor count is 6 of 10.

Take `CC[C@@]1(O)C[C@H](OC2CC(N(C)C)C(OC3CC(O)C(O[C@@H]4O[C@@H](C)C(=O)C=C4N)C(C)O3)C(C)O2)c2c(cc3c(c2O)C(=O)c2c(O)ccc(O)c2C3=O)[C@H]1C(=O)OC` (stereo not given in full): the T/C runs as follows: (dose: 0.38 mg/kg/injection, schedule: Q01DX009 (ip), vehicle: saline) 134 % of control; (dose: 1.6 mg/kg/injection, schedule: Q01DX001 (ip), vehicle: suspension in saline) 133 % of control.

For the compound `N#Cc1ccc(NC(=O)Nc2nccs2)cc1`, the T/C runs as follows: (dose: 12.5 mg/kg/injection, schedule: Q01DX009 (ip), vehicle: distilled water + Tween-80) 126 % of control; (dose: 25.0 mg/kg/injection, schedule: Q01DX009 (ip), vehicle: distilled water + Tween-80) 141 % of control; (dose: 50.0 mg/kg/injection, schedule: Q01DX009 (ip), vehicle: distilled water + Tween-80) 132 % of control. Further, the survivor count (dose: 200.0 mg/kg/injection, schedule: Q01DX009 (ip), vehicle: distilled water + Tween-80) was 0 of 10.

Regarding `O=C1N[C@H]2[C@H](O)[C@H](O)[C@@H](O)[C@H](O)[C@@H]2c2cc3c(c(O)c21)OCO3`, the T/C (dose: 3.12 mg/kg/injection, schedule: Q01DX009 (ip), vehicle: saline + alcohol) was 129 % of control. Further, the survivor count is, setting by setting: (dose: 12.0 mg/kg/injection, schedule: Q01DX009 (ip), vehicle: saline + alcohol) 6 of 10; (dose: 12.5 mg/kg/injection, schedule: Q01DX009 (ip), vehicle: saline + alcohol) 1 of 10; (dose: 25.0 mg/kg/injection, schedule: Q01DX009 (ip), vehicle: saline + alcohol) 0 of 10.

As for `Cc1c(CNc2ccc(C(=O)NC(CC(=O)O)C(=O)O)cc2)ccc2nc(N)nc(N)c12` (stereo not given), the survivor count runs as follows: (dose: 0.39 mg/kg/injection, schedule: Q01DX009 (ip), vehicle: saline with Tween-80) 10 of 10; (dose: 0.78 mg/kg/injection, schedule: Q01DX009 (ip), vehicle: saline with Tween-80) 7 of 10; under setting [3], 3 of 10.

Take `O=C1C2CC=CCC2C(=O)N1SC(Cl)(Cl)Cl` (stereo not given): the survivor count is 10 of 10 under setting [3] and 10 of 10 (dose: 3.13 mg/kg/injection, schedule: Q01DX009 (ip), vehicle: saline with Tween-80).

For `CO[C@@]12[C@@H]3N[C@@H]3CN1C1=C(C(=O)C(NCc3ccco3)=C(C)C1=O)[C@@H]2COC(N)=O`, the T/C runs as follows: (dose: 1.12 mg/kg/injection, schedule: Q01DX001 (ip), vehicle: distilled water + Tween-80) 125 % of control; (dose: 2.25 mg/kg/injection, schedule: Q01DX001 (ip), vehicle: distilled water + Tween-80) 148 % of control.

As to `ClC(Cl)(Cl)Sn1cccn1`, the survivor count (dose: 12.5 mg/kg/injection, schedule: Q01DX009 (ip), vehicle: saline with Tween-80) is 6 of 6; the survivor count (dose: 100.0 mg/kg/injection, schedule: Q01DX009 (ip), vehicle: saline) was 9 of 10; the survivor count (dose: 200.0 mg/kg/injection, schedule: Q01DX009 (ip), vehicle: saline) is listed as 6 of 10.

`COc1cc(NS(C)(=O)=O)ccc1Nc1c2ccc(Cl)cc2nc2c(OC)cccc12`: the T/C is 125 % of control (dose: 4.0 mg/kg/injection, schedule: Q01DX001 (ip), vehicle: water); 126 % of control (dose: 8.0 mg/kg/injection, schedule: Q01DX001 (ip), vehicle: water); 142 % of control (dose: 16.0 mg/kg/injection, schedule: Q01DX001 (ip), vehicle: water); 141 % of control (dose: 32.0 mg/kg/injection, schedule: Q01DX001 (ip), vehicle: water). Further, the survivor count is, setting by setting: (dose: 4.0 mg/kg/injection, schedule: Q01DX005 (iv), vehicle: water) 9 of 10; (dose: 8.0 mg/kg/injection, schedule: Q01DX005 (iv), vehicle: water) 4 of 10; (dose: 16.0 mg/kg/injection, schedule: Q01DX005 (ip), vehicle: water) 10 of 10; (dose: 16.0 mg/kg/injection, schedule: Q01DX005 (iv), vehicle: water) 0 of 10; (dose: 32.0 mg/kg/injection, schedule: Q01DX001 (iv), vehicle: water) 0 of 10.

As to `CC(=O)Oc1[nH]c(=O)c2cccc3c2c1CCC3`, the survivor count (dose: 800.0 mg/kg/injection, schedule: Q01DX009 (ip), vehicle: saline with Tween-80) is 9 of 10.

Take `O=[N+]([O-])c1ccc(Sc2ccncn2)c([N+](=O)[O-])c1`: the T/C under setting [1] was 129 % of control [8 of 10 alive]. Also, the survivor count (dose: 200.0 mg/kg/injection, schedule: Q01DX009 (ip), vehicle: saline with Tween-80) is 0 of 10.

In the case of `O=NNc1cnccn1`, the T/C (dose: 12.5 mg/kg/injection, schedule: Q01DX009 (ip), vehicle: water) is 132 % of control (2×). Besides, for the setting “dose: 50.0 mg/kg/injection, schedule: Q01DX009 (ip), vehicle: water”, the survivor count is reported as 10 of 10.

As to `O=C1NC(=O)C2(CCc3ccc(N(CCCl)CCCl)cc32)N1` (stereo not given), the T/C runs as follows: (dose: 3.0 mg/kg/injection, schedule: Q01DX009 (ip), vehicle: saline with Tween-80) 137 % of control; (dose: 6.0 mg/kg/injection, schedule: Q01DX009 (ip), vehicle: saline with Tween-80) 145 % of control.

As for `CN=C(N)NCCCCCCCCNC(N)=NC`, the survivor count by setting is: under setting [2], 7 of 10; (dose: 50.0 mg/kg/injection, schedule: Q01DX009 (ip), vehicle: saline with Tween-80) 0 of 10.

On to `CCCC(=O)OCC1OC(n2cnc3c(=S)nc(N)[nH]c32)C(OC(=O)CCC)C1OC(=O)CCC` (stereo not given), for which the survivor count was 10 of 10 (dose: 12.5 mg/kg/injection, schedule: Q01DX009 (ip), vehicle: Klucel (hydroxypropylcellulose) (HPC)); 10 of 10 (dose: 25.0 mg/kg/injection, schedule: Q01DX009 (ip), vehicle: Klucel (hydroxypropylcellulose) (HPC)); 10 of 10 (dose: 50.0 mg/kg/injection, schedule: Q01DX009 (ip), vehicle: Klucel (hydroxypropylcellulose) (HPC)); 10 of 10 (dose: 100.0 mg/kg/injection, schedule: Q01DX009 (ip), vehicle: Klucel (hydroxypropylcellulose) (HPC)).
